# Test results reported in PubChem BioAssay AID2685 (National Center for Advancing Translational Sciences (NCATS), 2010).
# Some of the results follow. Further columns of the screen follow, without active or inactive calls. Compounds called inactive in the main read-out are mostly missing here. Potencies come from curve fits of mixed quality, noted in brackets.
# Test: qHTS Assay for Lipid Storage Modulators in Drosophila S3 Cells;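 for cell number change: cells counted by Cell Tracker Red CMTPX staining in the red channel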
# Conditions: BODIPY lipid droplet fluorescence, 18-24 h; for cell number change: measured here: cell count max response, cells fed with added oleic acid
# Summary of the method: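 Drosophila S3 cells got compounds at several concentrations plus oleic acid (400 uM solution). Laser-scanning cytometry with 488 nm excitation read lipid droplets at 500-530 nm and cells at 575-640 nm. Percent activity was relative to 20 uM Triacsin C.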
# [1] = measured here: lipid fluorescence (Fed channel) AC50, cells fed with added oleic acid
# [2] = measured here: cell number channel AC50, cells fed with added oleic acid
SMILES,cell number change [%],AC50 [1],AC50 [2]
CCOc1ccc(NC(=O)CN(C)C(=O)Cn2c(=O)oc3ccccc32)cc1OCC,-3.34,"0.731 µM [falling, single point]",–
CCCC1=NN2C(=N)/C(=C\c3cc(C)n(-c4cccc(C)c4)c3C)C(=O)N=C2S1,-27.2,"4.61 µM [falling, full curve]",–
COc1cc(C2N(c3ccccc3)CCN2c2ccccc2)ccc1OC(C)=O,-27.3,"18.4 µM [falling, single point]",–
COc1ccccc1-c1nc(C(=O)NCC2CCCO2)cc2c1[nH]c1ccccc12 (centres undefined),-4.29,"14.6 µM [falling, partial curve]",–
COc1cc(NC(=O)c2cccs2)c(C(=O)OCC(=O)NC(C)c2ccccc2)cc1OC (centres undefined),-11,"0.231 µM [rising, full curve]",–
Cc1cc(C)c(S(=O)(=O)c2ccc(F)cc2C)c(Cl)n1,15,"1.84 µM [rising, full curve, poor fit]",–
C[C@]1(C(=O)NCCCNc2ncc(C(F)(F)F)cc2Cl)C=C[C@@H](Cc2ccccc2)N1C(=O)c1ccccc1,-51.7,–,"29.1 µM [falling, single point]"
O=C(Nc1cccc(Cl)c1N1CCOCC1)c1ccco1,7.69,"16.4 µM [falling, partial curve]",–
Cc1cccc(N(CC(=O)NC2CCCCC2)C(=O)c2c(C)noc2C)c1,–,"14.6 µM [falling, partial curve]","6.51 µM [falling, single point]"
COc1ccccc1C(=O)NN(C)C1=NS(=O)(=O)c2ccccc21,-54.2,–,–
O=C(O)Cn1cnc2c(=S)nc[nH]c21,-43.9,"29.1 µM [falling, single point]","29.1 µM [falling, single point]"
CCCCCc1ccc(-c2cn(CN3C(=O)c4ccccc4C3=O)nn2)cc1,–,"29.1 µM [rising, single point]",–
COc1ccc(NC(=O)Cc2nn(C)c(=O)c3ccccc23)c2ncccc12,54.2,"29.1 µM [rising, single point]","29.1 µM [rising, single point]"
OC(COCc1cccs1)CN1CCCCCC1 (centres undefined),18.3,"0.13 µM [rising, full curve, poor fit]",–
Cc1c(CC(C)C)nc(N)c(C#N)c1-c1ccccc1,-21.9,–,–
COc1cccc(/C=C/C(=O)OCC(=O)NC2CC2)c1,-36.9,"0.00461 µM [falling, full curve, poor fit]","8.2 µM [falling, partial curve, poor fit]"
O=C(Cn1ncc2c([nH]c3ccccc32)c1=O)NCCCN1CCN(c2ccccc2)CC1,56.3,"29.1 µM [rising, single point]","0.517 µM [rising, partial curve]"
COCCCNC(=O)C1CCN(S(=O)(=O)c2c(C)noc2/C=C\c2ccc(OC)cc2)CC1,90.9,"20.6 µM [rising, single point]","18.4 µM [rising, single point]"
C=CCn1cnc2c(NCc3ccccc3)ncnc21,–,"0.206 µM [rising, full curve, poor fit]","0.146 µM [rising, full curve, poor fit]"
C=CCN(c1ccccc1C(=O)NCC(=O)O)S(=O)(=O)c1ccc(C)cc1,-49,"29.1 µM [falling, single point]","29.1 µM [falling, single point]"
Cc1ccc2c(CC(=O)NNC(=O)c3ccccc3)coc2c1,-7.16,–,"0.13 µM [falling, full curve, poor fit]"
CC(=O)N1CC2(CC(=O)OC(C)C)CN(C(C)=O)CC(CC(=O)OC(C)C)(C1)C2=O,-3.04,–,"0.0082 µM [falling, full curve, poor fit]"
COc1ccc(/C=C(/NC(=O)c2ccccc2)C(=O)N2CCCCC2)cc1,1.47,"4.61 µM [rising, full curve]",–
Oc1cccc2ccc(/C=C/c3ccccc3Br)nc12,-8.38,"0.00517 µM [rising, full curve, poor fit]",–
COc1ccc(C(C)(C)C)cc1NC(=O)COC(=O)C1=NNC(=O)CC1,-5.36,"16.4 µM [rising, partial curve]",–
O=C(Nc1ccccc1)Nc1cnccn1,-21,–,–
COc1ccccc1NC(=O)CCSc1nc(C)cc(C)n1,8.95,"2.06 µM [rising, partial curve]",–
N#C/C(=C\N1CCOCC1)c1ccccc1,–,"0.116 µM [falling, full curve, poor fit]",–
CCCc1c(O)nc(SCC(=O)NCCc2ccc(OC)c(OC)c2)[nH]c1=O,-159,–,"29.1 µM [falling, partial curve]"

# Random excerpt: two records from the list
SMILES,cell number change [%],AC50 [1],AC50 [2]
CC(=O)N1CC2(CC(=O)OC(C)C)CN(C(C)=O)CC(CC(=O)OC(C)C)(C1)C2=O,-3.04,–,"0.0082 µM [falling, full curve, poor fit]"
O=C(O)Cn1cnc2c(=S)nc[nH]c21,-43.9,"29.1 µM [falling, single point]","29.1 µM [falling, single point]"
